Experimental data as given in publication PMC12040169 (PLOS Biology, 2025).
Some of the results follow.

test system: T1, CTL2-GFP (C. trachomatis L2/434/Bu, GFP-expressing); set-up: species or system HeLa; Intracellular C. trachomatis growth in HeLa cells, bulk GFP fluorescence relative to DMSO; settings: bulk GFP, single well; 28.5 h, 10 µM; inhibitor
T1 construct: L2/434/Bu, GFP-expressing

Going from `O=c1[nH]c2ncc(-c3cccc(-c4ccccc4)c3)nc2n1CCCN1CCOCC1` [CBK064311] to `COc1ccc(-c2cnc3[nH]c(=O)n(Cc4cccs4)c3n2)c(OC)c1OC` [CBK064716], the “% of control remaining” value falls from 148.481% to 112.836%.

First: O=C(O)c1cc(S(=O)(=O)NCc2ccco2)ccc1Br [CBK306193]
Second: O=S(=O)(NCc1ccccc1)c1cc(S(=O)(=O)c2ccc(Cl)cc2)ccc1Cl [CBK263207]
The “% of control remaining” value of the first is higher: 126.874% for the first, 72.5445% for the second.

Compared with `CS(=O)(=O)N1CCN(Cc2cc(Br)ccc2O)CC1` [CBK263620G], `COc1ccc2c(c1)c(=O)oc1c(CN3CCCC3)c(O)ccc12` [CBK266814] is higher in “% of control remaining” value: 112.979% for the first, 167.657% for the second.

Compared with `Cc1cccc(NC(=O)c2n[nH]c3ccccc23)c1` [CBK288231], `Cc1nc(-c2ccccc2F)sc1C(=O)Nc1ccccn1` [CBK287979] is higher in “% of control remaining” value: 118.829% for the first, 141.637% for the second.

First: Nc1cc2ccccc2c(-c2ccc(OC(F)(F)F)cc2)n1 [CBK085725]
Second: Cc1cccc(CNc2nccnc2-c2cccc(N)c2)c1 [CBK038080]
The “% of control remaining” value of the first is lower: 93.5918% for the first, 107.388% for the second.

Going from `CCc1nc(NC(=O)c2ccnc(Cl)c2)sc1C` [CBK298287] to `CCOC(=O)c1sc(NS(=O)(=O)Cc2ccccc2)nc1C` [CBK047448], the “% of control remaining” value falls from 136.346% to 122.6%.

Going from `C(=C\C1Nc2ccccc2-c2nnc(SCc3ccccc3)nc2O1)/c1ccccc1` (stereo not shown) [CBK264447] to `O=C(CN1C(=O)C2C3c4ccccc4C(c4ccccc43)C2C1=O)OCC(=O)c1ccc(F)cc1` (stereo not shown) [CBK264861], the “% of control remaining” value rises from 102.859% to 109.608%.

Compared with `Cc1nc(C2(O)CCCN(C3CCCC3)CC2)sc1COc1ccc(F)c(F)c1` (stereo not shown) [CBK286259], `Brc1ccccc1-c1nnc2n1CCCCC2` [CBK200092] is higher in “% of control remaining” value: 81.0806% for the first, 100.48% for the second.

Compared with `CC1CCCCN1S(=O)(=O)c1ccc(NCCC(=O)c2ccc(Cl)cc2)cc1` (stereo not shown) [CBK268529], `Cc1ccc(CN2CC[C@H]3[C@@H](C2)[C@H](c2ccsc2)CN3C(=O)c2ccc(F)cc2)cc1` [CBK285637] is higher in “% of control remaining” value: 86.9837% for the first, 114.95% for the second.

First: Brc1cn2ccnc2c(NCCc2ccccn2)n1 [CBK066244]
Second: OCCNc1cncc(-c2ccccc2)n1 [CBK065857]
The “% of control remaining” value of the first is lower: 127.581% for the first, 132.945% for the second.

First: CC(C)(C)OC(=O)N1CCCC(C(=O)Nc2ccccn2)C1 (stereo not shown) [CBK304524]
Second: O=C(O)CCN1C(=O)c2ccc(NC(=O)c3ccccc3Cl)cc2C1=O [CBK268413]
The “% of control remaining” value of the first is lower: 107.408% for the first, 122.449% for the second.
